Experimental data published in article PMC4303145.
No constants are given. Whether binding was seen depends on the method and setting. Binding seen in cells or lysates may run through a third protein.

The chains behind the UniProt entries cited, without tags or fusion partners.
UniProt Q8TED9: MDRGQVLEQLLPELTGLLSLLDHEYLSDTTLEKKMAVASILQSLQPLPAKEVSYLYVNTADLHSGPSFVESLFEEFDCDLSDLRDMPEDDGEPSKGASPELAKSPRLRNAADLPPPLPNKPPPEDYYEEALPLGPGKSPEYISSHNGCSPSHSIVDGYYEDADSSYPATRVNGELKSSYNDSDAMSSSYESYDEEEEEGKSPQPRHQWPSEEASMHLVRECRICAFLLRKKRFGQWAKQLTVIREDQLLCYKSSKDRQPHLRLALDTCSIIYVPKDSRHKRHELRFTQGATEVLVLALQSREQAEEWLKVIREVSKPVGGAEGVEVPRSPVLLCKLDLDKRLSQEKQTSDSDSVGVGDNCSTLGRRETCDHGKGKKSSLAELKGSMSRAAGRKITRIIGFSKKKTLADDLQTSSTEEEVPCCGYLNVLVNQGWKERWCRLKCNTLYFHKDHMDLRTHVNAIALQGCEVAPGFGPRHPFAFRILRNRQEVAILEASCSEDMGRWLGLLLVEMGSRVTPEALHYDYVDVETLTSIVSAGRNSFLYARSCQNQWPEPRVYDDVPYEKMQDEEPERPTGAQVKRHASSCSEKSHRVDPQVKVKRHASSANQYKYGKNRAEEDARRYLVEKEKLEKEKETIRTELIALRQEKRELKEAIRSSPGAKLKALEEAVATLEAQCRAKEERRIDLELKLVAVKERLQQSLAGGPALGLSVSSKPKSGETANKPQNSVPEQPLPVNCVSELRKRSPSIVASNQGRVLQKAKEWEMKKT
UniProt P49023: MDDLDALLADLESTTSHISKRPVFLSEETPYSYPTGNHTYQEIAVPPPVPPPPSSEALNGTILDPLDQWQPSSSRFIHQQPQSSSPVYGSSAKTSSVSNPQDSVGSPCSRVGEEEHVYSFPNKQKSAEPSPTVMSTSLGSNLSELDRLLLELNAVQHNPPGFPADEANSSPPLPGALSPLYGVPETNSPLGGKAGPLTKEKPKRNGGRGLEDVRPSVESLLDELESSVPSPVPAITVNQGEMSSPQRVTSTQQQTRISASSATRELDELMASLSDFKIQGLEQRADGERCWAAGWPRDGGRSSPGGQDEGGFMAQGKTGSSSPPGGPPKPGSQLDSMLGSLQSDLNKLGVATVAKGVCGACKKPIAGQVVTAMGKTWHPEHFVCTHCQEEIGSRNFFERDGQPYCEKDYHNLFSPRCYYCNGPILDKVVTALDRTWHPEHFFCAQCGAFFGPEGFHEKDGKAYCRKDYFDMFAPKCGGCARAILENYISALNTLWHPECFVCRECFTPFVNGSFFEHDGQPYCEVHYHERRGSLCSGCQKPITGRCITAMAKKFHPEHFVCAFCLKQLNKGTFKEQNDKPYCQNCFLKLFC
UniProt Q05397: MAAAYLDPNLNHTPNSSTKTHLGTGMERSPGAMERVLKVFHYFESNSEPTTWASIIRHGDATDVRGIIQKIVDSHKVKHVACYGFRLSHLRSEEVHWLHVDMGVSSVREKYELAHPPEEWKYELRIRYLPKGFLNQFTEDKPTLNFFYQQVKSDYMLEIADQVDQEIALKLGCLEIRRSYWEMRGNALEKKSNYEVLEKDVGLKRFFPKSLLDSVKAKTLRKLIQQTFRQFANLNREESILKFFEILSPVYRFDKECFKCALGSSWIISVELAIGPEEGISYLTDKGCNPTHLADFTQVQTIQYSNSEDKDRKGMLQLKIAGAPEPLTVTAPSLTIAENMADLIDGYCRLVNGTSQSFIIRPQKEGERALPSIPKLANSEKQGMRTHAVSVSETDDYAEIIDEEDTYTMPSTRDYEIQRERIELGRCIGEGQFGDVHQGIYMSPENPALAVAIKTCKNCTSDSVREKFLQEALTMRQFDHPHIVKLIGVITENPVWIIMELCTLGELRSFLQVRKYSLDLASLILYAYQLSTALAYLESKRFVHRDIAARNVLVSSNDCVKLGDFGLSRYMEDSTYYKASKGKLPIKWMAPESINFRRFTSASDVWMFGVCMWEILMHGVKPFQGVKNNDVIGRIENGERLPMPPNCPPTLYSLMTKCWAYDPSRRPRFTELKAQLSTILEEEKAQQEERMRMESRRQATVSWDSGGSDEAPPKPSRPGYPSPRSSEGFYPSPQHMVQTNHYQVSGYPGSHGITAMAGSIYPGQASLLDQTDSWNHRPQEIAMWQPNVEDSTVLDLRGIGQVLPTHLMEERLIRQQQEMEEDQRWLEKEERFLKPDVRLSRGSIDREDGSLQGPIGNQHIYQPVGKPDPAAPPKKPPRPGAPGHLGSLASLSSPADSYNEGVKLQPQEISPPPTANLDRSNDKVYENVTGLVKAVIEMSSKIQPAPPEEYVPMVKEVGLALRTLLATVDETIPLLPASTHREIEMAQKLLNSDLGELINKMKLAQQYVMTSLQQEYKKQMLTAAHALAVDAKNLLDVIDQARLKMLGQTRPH

Target: endogenous AFAP1L1 (human (endogenous in LoVo)) (UniProt Q8TED9)
Assay: co-IP; LoVo whole cell lysates, endogenous proteins; immunoprecipitated with the anti-AFAP1L1 Ab, immunoblotted with Abs against vinculin or other invadopodia or focal adhesion proteins

binding | Substance
no binding | endogenous paxillin (from UniProt P49023 1-591)
no binding | endogenous focal adhesion kinase (FAK) (from UniProt Q05397 1-1052)
